Measurements published in patent publication US10815276B2, “Cell penetrating peptides and methods of making and using thereof” (Entrada Therapeutics, Inc., priority 2014, dated 2020).
Part of at least one peptide drawing is inferred or uncertain, most often the ends. Starred links: 1 amine or outer side, 2 acyl side, 3 side chain; linkers in the order of their positions; H or OH if unused. Positions of bridges follow the written chain, without caps; N, C: chain ends. Non-standard residues stand in square brackets, D forms with d. Residues, ends and D or L forms follow the SMILES beside them. Trimesoyl = O=C(c1cc(C(=O)[*:2])cc(C(=O)[*:3])c1)[*:1]; F2Pmp = N[C@@H](Cc1ccc(C(F)(F)P(=O)(O)O)cc1)C(=O)O; 2Nal = N[C@@H](Cc1ccc2ccccc2c1)C(=O)O; Dap = NC[C@H](N)C(=O)O

How the values were obtained:
[1] = molecular target: T1, PTPRO (Homo sapiens, UniProt Q16827); assay: PTP inhibition assay (pNPP); format: biochemical
T1 sequence (Q16827 30-1216): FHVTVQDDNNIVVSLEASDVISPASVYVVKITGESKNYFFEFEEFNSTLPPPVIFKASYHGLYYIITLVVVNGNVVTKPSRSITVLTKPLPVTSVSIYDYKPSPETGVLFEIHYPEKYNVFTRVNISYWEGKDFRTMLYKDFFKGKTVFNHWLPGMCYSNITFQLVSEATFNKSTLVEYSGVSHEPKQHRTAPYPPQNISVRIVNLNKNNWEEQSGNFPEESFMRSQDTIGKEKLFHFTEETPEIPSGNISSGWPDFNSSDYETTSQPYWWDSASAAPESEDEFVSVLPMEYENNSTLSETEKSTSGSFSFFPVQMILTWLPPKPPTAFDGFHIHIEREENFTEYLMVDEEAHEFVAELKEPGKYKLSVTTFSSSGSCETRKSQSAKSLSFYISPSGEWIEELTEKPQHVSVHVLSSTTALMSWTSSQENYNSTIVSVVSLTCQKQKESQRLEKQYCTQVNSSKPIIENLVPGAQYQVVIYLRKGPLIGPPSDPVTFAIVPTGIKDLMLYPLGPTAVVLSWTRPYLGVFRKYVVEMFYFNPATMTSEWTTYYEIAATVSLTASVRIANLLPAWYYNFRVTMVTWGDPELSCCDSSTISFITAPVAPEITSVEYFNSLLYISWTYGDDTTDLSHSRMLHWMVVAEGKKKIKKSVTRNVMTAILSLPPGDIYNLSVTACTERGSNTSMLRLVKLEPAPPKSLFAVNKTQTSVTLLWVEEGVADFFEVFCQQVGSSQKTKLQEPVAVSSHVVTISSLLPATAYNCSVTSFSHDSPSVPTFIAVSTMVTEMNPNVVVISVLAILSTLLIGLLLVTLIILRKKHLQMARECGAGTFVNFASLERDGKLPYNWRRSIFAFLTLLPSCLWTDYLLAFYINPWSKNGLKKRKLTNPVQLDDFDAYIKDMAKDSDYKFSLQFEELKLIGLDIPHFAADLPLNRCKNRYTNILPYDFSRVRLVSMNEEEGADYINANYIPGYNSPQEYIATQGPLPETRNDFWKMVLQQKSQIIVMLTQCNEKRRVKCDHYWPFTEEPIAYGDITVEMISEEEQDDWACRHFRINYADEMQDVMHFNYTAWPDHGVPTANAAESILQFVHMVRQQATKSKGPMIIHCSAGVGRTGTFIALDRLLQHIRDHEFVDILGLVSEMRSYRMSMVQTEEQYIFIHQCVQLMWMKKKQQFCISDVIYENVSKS
Procedure: (§1) PTP assays were performed in a quartz microcuvette (total volume 150 μL). The reaction mixture contains 100 mM Tris-HCl, pH 7.4, 50 mM NaCl, 2 mM EDTA, 1 mM TCEP, 0-1 μM of PTP inhibitor, and 500 μM para-nitrophenyl phosphate (pNPP). The enzymatic reaction was initiated by the addition of PTP (final concentration 15-75 nM) and monitored continuously at 405 nm on a UV-VIS spectrophotometer. Initial rates were calculated from the reaction progress curves (typically <60 s). The half-maximal inhibition constant (IC50) was defined as the concentration of an inhibitor that reduced the enzyme activity to 50% and was obtained by plotting the rates (V) against the inhibitor concentration [I] and fitting the data against the equation

[2] = molecular target: T2, PTPRC (Homo sapiens, UniProt P08575); assay: PTP inhibition assay (pNPP); format: biochemical
T2 sequence (P08575 26-1306): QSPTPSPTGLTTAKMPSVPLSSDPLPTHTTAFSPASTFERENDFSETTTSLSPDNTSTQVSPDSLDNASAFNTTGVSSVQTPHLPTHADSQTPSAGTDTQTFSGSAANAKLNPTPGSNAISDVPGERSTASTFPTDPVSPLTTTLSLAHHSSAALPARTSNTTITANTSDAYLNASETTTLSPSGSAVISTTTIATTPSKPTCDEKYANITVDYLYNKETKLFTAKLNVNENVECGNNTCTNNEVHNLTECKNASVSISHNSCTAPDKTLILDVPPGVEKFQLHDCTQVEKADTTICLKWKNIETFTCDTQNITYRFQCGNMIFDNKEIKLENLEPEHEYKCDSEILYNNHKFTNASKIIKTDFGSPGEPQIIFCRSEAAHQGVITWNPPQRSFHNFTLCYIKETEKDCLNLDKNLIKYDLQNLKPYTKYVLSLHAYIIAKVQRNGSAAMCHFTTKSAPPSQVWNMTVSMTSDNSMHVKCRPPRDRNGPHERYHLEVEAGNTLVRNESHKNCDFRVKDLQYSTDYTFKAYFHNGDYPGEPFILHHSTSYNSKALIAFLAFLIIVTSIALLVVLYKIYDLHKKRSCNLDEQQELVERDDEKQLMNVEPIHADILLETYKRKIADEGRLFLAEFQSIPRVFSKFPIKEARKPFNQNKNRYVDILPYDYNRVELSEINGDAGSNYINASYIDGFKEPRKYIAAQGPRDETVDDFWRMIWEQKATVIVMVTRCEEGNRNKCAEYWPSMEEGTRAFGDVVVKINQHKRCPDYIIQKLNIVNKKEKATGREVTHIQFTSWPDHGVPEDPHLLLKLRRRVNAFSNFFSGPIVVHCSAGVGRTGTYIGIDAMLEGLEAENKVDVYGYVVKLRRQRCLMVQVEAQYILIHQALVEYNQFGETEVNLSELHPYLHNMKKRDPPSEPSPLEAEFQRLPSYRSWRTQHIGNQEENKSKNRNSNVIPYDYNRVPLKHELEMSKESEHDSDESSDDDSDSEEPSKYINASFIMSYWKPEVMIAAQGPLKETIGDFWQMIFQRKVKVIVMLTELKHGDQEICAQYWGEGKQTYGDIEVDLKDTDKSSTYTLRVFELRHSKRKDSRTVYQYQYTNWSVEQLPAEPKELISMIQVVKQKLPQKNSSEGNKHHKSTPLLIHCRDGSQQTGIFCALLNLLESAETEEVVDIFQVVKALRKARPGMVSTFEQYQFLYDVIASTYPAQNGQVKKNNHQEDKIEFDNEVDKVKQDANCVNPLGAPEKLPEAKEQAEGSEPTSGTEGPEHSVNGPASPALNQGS
Procedure: as §1

CC(C)[C@H]1NC(=O)[C@H](CO)NC(=O)c2cc3cc(c2)C(=O)NC[C@H](NC(=O)[C@H](Cc2c[nH]cn2)NC(=O)[C@H](Cc2ccc(C(F)(F)P(=O)(O)O)cc2)NC(=O)[C@@H]2CCCN2C1=O)C(=O)N[C@@H](CCCNC(=N)N)C(=O)N[C@@H](CCCNC(=N)N)C(=O)N[C@@H](CCCNC(=N)N)C(=O)N[C@@H](CCCNC(=N)N)C(=O)N[C@@H](Cc1ccc2ccccc2c1)C(=O)N[C@@H](Cc1ccccc1)C(=O)N[C@H](C(=O)N[C@@H](CCCCN)C(N)=O)CNC3=O [Bicyclic Inhibitor 4] (S[dV]P[F2Pmp]H[Dap]RRRR[2Nal]F[Dap]K-NH2; linker N-6-13 via Trimesoyl; C-terminus assumed)
IC50 [1]: > 1000 nM | IC50 [2]: > 1000 nM
